The target of this test is T1, Fe65-WW domain (human) (UniProt O00213).
T1 sequence (chain, acetyl (acetyl-Fe65-WW)): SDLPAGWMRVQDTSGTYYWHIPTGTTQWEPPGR
Description: condition: 1.056 mM PPPPP in the syringe, 83.5 μM Fe65-WW in the cell; ITC; Microcal VP-ITC; 10-uL portions of ligand (P33 1.006 mM or PPPPP 1.056 mM in the syringe) injected into the WW domain in the cell (Fe65-WW 83.5 uM or Pin1-WW 81.4 uM); degassed PBS pH 7.4, 310 K; dilution heats subtracted; repeated twice; both purified.

These are yes or no findings as the source states them, for the method shown.

B1: PPPPP (peptide)
peptide: PPPPP
B1: the binding result was “no binding”.

(Values after PMC6627374, “Effects of the Pentapeptide P33 on Memory and Synaptic Plasticity in APP/PS1 Transgenic Mice: A Novel Mechanism Presenting the Protein Fe65 as a Target” (International Journal of Molecular Sciences, 2019).)
